Drawing on article PMC4297292 (Cancer Cell, 2015), this text covers IC50 for one molecule.

The assay concerns patient #2 cells (vemurafenib-resistant melanoma). Briefly: Cell proliferation assay. It is filed as cell-based. Particulars: Homo sapiens, read-out: 50% inhibitory concentration [IC50].

For `C[S+]([O-])c1ccc(-c2nc(-c3ccncc3)c(-c3ccc(F)cc3)[nH]2)cc1` (stereo not shown) [SB203580], the IC50 came to 29.4 µM.
